The results in this text go back to article PMC3544915.

The experiment addresses T1, CaHxk1 tagged with the 6xHis-FLAG epitope sequence, expressed under the ADH1 promoter (Candida albicans) (UniProt Q59RW5).
T1 sequence: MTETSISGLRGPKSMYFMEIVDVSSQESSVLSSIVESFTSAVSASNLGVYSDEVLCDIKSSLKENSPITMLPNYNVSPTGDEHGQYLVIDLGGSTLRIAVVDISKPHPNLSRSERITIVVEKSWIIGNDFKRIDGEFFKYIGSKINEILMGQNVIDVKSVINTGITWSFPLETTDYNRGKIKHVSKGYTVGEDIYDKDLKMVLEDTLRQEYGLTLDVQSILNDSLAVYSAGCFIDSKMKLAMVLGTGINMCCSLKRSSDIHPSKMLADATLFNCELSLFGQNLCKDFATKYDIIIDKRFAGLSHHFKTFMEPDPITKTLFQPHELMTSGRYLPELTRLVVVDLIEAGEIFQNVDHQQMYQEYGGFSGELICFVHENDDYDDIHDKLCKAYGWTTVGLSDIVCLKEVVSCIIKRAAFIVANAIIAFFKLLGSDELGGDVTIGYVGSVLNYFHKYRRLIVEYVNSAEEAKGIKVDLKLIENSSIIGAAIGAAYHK
The experiment can be described thus: affinity purification with mass spectrometry; two-step (tandem) affinity purification of 6xHis-FLAG Hxk1 from lysate of Spider-induced cells: anti-FLAG M2 agarose overnight at 4°C, FLAG peptide elution, then Ni-NTA agarose 2 hrs at 4°C, 300 mM imidazole elution; NP-40 buffer (50 mM NaH2PO4 pH 8.0, 150 mM NaCl, 1% Nonidet P-40); SDS-PAGE, silver staining, bands identified by mass spectrometry.

Results are given in words; binding and its absence hold for the method and conditions named. Binding seen in cells or lysates may run through a third protein. These calls come from enrichment with a bait or labelling near it, and not all partners need be listed. Sequences can lack the tags named with a protein.

Take “C.albicans Acs1 (Acetyl co-A Synthase) (Candida albicans (endogenous in CAI4)) (enzyme)”: the binding result was “binds”.
